{"source": "patent US11464791B2", "about": "“Use of paricalcitol in the treatment of inflammatory anaemia” (priority 2014, dated 2022)", "experiment": "Study A: evolution of IV Fe supplement doses", "assay_type": "in vivo, human", "data": [{"compound": "C[C@H](/C=C/[C@H](C)C(C)(C)O)[C@H]1CC[C@H]2/C(=C/C=C3C[C@@H](O)C[C@H](O)C3)CCC[C@]12C", "note": "[paricalcitol, 19-nor-1, 25-(OH) 2-vitamin D2]", "values": [{"measurement": "dose of IV Fe", "setting": "month 0", "value": "96±13", "unit": "mg/week"}, {"measurement": "dose of IV Fe", "setting": "month 3", "value": "109±20", "unit": "mg/week"}, {"measurement": "dose of IV Fe", "setting": "month 6", "value": "96±19", "unit": "mg/week"}]}]}
